The nature of the data set: in vivo. The following applies: rat, 10 μM.

This is an account of results in US9855256B2, “Cyclooxygenase inhibitor and calcium channel antagonist compositions and methods for use in urological procedures” (Omeros Corporation, priority 2005, dated 2018).

Structures are written as SMILES.

For orientation: Cmax means the highest concentration seen after dosing. Regarding `COC(=O)C1=C(C)NC(C)=C(C(=O)OC)C1c1ccccc1[N+](=O)[O-]` [Nifedipine, 1,4-dihydro-2,6-dimethyl-4-(2-nitrophenyl)-3,5-pyridinedicarboxylic acid dimethyl ester], the highest concentration (Cmax) lay in the range of 10.6 to 16 ng/mL.
